± gives the standard deviation of the averaged measurements. This is one part of the list.
Compound: Nc1nc2c(ncn2[C@@H]2O[C@H](COP(=O)(O)OP(=O)(O)OP(=O)(O)O)[C@@H](O)[C@H]2O)c(=O)[nH]1 [guanosine triphosphate]
Test: NP40-soluble protein abundance relative to vehicle (solubility fold change) (ratio); higher = more soluble protein in presence of GTP
Summary of the method: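 Values are fold changes against the detergent-processed vehicle, based on vsn-normalised intensities. Jurkat crude lysate was treated at eight concentrations from 0.1 to 10 mM (10 min at room temperature, then 3 min at 37 °C), solubilised with 0.8% NP40 and benzonase, ultracentrifuged and analysed by TMT-labelled LC-MS/MS over three independent experiments.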

The chains behind the UniProt entries cited, without tags or fusion partners. Where a name states a change or a piece, a line headed by the entry shows the natural chain unless it says otherwise.
UniProt Q9BWS9: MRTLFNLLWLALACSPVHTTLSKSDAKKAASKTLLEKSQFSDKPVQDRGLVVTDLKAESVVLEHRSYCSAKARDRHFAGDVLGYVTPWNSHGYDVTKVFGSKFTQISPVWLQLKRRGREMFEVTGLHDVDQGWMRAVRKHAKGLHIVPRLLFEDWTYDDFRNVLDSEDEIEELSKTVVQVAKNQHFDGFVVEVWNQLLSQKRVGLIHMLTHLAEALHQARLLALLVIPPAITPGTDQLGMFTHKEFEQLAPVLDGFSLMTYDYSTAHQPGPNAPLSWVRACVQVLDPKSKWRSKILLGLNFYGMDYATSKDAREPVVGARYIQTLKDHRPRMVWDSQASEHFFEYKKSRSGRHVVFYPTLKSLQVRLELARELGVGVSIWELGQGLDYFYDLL
UniProt Q99496: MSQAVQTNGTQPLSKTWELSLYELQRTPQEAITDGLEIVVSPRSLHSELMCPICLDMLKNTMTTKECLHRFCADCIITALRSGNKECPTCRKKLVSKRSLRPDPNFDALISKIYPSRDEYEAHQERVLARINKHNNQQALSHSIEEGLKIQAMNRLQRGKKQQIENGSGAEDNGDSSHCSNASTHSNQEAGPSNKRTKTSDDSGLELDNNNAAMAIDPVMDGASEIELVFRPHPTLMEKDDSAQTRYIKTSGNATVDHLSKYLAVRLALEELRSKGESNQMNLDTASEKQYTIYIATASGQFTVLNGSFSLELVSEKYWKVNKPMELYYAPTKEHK
UniProt Q9BTE3: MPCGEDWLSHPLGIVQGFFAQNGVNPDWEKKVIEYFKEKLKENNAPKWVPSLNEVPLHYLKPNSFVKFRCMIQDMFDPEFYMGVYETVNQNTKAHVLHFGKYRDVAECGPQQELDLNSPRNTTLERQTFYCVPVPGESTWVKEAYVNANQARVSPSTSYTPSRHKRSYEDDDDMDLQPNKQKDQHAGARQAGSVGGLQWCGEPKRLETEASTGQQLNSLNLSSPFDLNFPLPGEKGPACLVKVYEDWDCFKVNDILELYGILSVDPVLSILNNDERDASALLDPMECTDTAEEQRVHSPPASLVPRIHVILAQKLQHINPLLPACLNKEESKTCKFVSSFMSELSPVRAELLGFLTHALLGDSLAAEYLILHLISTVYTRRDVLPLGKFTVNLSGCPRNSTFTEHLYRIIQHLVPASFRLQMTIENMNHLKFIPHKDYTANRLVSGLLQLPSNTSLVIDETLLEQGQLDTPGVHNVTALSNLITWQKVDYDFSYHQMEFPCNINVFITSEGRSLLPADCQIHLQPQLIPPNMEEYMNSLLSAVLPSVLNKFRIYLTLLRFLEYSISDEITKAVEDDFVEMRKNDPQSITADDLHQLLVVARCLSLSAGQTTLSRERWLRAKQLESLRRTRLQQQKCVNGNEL
UniProt Q9BYW2: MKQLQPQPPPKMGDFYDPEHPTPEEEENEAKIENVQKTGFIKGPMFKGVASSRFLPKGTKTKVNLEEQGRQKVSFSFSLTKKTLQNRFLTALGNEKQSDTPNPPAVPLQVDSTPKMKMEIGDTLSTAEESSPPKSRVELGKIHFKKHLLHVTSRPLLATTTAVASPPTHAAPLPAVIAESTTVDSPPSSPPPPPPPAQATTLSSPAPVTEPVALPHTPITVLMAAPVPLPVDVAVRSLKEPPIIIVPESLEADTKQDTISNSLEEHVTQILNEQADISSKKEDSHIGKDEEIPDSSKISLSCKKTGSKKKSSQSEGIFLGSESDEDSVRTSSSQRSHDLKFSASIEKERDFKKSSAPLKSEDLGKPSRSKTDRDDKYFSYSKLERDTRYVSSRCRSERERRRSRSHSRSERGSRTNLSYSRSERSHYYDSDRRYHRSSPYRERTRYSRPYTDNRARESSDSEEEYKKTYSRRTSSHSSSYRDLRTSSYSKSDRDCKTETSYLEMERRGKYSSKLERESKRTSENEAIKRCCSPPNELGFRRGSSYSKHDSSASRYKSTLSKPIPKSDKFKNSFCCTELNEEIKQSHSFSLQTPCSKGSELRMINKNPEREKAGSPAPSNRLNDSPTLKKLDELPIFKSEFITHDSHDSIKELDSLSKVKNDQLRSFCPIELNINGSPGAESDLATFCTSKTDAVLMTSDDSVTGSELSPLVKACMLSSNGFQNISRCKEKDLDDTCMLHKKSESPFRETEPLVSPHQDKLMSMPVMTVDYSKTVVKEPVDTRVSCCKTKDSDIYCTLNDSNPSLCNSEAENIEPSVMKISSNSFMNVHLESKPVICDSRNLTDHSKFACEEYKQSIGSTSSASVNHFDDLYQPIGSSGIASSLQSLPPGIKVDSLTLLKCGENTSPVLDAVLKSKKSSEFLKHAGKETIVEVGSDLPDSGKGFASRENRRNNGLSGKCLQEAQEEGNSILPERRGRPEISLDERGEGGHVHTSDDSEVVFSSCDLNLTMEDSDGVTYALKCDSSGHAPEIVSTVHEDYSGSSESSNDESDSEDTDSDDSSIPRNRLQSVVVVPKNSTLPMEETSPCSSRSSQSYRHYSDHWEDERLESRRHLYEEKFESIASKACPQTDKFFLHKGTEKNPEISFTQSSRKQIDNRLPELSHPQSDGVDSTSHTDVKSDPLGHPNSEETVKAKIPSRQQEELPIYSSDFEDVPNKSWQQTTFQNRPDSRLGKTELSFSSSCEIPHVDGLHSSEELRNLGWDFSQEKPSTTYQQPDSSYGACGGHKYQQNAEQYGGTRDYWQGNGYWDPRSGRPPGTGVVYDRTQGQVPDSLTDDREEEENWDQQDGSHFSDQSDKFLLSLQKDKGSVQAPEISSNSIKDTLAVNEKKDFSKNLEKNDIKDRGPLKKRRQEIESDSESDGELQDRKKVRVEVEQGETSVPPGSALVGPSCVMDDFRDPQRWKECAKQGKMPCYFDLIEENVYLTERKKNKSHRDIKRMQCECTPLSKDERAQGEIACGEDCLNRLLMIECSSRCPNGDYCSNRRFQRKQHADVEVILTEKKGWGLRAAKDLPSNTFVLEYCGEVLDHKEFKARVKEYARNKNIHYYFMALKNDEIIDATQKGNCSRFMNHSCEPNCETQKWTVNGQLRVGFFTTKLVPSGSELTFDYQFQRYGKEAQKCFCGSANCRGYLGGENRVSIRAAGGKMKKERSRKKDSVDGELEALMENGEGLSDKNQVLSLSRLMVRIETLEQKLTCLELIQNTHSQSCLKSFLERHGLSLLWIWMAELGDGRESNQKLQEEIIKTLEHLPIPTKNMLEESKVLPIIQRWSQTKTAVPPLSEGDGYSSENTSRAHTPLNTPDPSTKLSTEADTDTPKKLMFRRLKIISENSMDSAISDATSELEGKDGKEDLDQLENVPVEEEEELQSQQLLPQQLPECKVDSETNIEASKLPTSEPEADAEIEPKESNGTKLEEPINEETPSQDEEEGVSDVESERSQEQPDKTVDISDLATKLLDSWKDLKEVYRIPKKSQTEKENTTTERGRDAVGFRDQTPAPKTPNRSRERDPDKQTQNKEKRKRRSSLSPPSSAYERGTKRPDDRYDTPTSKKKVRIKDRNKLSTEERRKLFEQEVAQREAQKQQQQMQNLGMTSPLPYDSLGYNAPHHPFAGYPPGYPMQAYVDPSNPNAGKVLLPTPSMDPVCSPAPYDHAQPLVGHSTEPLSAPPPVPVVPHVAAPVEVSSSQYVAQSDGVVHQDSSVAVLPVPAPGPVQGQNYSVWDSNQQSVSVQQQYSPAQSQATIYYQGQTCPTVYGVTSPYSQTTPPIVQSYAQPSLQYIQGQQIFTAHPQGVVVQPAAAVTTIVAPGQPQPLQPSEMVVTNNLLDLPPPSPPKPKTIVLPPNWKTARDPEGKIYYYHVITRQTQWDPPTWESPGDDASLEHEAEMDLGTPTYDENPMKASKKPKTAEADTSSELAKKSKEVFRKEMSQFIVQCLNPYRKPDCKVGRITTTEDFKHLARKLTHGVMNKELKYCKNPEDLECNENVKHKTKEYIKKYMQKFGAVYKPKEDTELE
UniProt Q96RL1: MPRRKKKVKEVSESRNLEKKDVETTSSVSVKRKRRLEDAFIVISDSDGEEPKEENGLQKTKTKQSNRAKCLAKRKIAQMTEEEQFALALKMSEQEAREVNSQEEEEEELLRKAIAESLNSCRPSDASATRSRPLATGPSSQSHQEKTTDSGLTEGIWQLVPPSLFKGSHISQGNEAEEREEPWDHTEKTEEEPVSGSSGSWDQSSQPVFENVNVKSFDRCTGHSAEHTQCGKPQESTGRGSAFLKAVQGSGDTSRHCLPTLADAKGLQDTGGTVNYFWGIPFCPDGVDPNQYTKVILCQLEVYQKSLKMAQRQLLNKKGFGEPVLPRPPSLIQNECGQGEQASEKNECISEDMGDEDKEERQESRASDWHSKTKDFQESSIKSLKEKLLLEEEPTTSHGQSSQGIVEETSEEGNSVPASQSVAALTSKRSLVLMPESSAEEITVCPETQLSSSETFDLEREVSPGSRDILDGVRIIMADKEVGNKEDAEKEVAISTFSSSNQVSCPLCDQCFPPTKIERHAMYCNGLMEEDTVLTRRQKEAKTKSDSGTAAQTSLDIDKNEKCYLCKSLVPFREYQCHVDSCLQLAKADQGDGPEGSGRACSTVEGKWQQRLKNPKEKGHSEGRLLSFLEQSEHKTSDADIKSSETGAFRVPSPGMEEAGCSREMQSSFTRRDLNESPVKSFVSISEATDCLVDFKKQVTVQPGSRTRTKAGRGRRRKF
UniProt Q96N16: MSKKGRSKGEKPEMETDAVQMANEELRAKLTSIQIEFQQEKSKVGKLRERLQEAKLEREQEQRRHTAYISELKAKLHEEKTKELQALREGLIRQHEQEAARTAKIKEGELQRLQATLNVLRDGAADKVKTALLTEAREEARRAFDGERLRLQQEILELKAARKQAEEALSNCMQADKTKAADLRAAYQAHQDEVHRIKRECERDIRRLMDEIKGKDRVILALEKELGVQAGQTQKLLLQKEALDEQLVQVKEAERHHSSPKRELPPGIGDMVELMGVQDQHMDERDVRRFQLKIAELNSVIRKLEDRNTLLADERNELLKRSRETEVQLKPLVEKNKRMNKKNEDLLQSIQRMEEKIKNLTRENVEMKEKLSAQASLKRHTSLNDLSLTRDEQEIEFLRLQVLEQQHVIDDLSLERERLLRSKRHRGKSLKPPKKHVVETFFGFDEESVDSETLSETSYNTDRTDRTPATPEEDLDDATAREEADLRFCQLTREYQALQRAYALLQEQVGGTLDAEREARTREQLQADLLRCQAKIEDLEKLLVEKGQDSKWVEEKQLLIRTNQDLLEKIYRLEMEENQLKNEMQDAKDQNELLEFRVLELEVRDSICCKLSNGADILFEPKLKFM
UniProt Q96S94: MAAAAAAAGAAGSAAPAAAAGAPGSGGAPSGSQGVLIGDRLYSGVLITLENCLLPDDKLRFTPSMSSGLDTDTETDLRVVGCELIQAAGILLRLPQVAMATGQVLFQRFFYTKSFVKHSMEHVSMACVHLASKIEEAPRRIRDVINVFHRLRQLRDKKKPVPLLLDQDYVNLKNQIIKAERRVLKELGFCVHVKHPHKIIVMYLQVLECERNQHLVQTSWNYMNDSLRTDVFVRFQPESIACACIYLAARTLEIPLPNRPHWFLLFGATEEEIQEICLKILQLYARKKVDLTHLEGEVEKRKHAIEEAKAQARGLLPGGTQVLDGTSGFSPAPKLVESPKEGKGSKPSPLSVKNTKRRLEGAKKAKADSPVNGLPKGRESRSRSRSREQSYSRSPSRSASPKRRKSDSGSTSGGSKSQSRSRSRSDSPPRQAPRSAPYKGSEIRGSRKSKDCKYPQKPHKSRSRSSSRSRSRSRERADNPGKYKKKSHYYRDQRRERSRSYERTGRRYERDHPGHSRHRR
UniProt Q9BRD0: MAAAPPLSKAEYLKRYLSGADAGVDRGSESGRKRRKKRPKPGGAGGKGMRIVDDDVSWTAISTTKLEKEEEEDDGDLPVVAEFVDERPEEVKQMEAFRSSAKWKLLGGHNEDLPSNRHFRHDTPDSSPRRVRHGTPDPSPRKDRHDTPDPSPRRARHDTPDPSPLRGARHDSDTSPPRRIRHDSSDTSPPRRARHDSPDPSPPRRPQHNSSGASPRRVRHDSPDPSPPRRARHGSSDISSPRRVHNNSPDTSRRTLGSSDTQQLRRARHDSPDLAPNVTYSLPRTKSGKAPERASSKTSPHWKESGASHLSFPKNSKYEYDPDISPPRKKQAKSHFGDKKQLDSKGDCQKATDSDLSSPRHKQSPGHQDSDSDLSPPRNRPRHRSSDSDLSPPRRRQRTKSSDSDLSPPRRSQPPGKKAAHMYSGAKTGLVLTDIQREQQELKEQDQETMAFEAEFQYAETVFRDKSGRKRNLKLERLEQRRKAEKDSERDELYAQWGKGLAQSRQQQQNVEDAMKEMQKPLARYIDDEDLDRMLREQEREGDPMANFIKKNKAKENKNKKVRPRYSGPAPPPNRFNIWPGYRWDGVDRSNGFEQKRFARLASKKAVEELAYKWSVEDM

Target | NP40-soluble protein abundance (concentration: 0.1mM) | NP40-soluble protein abundance (concentration: 0.5mM) | NP40-soluble protein abundance (concentration: 1mM) | NP40-soluble protein abundance (concentration: 2mM) | NP40-soluble protein abundance (concentration: 4mM) | NP40-soluble protein abundance (concentration: 6mM) | NP40-soluble protein abundance (concentration: 8mM) | NP40-soluble protein abundance (concentration: 10mM)
UniProt Q9BWS9 and related entries | 1.12 ± 0.048 | 1.07 ± 0.016 | 0.985 ± 0.043 | 1 ± 0.072 | 1.03 ± 0.057 | 1 ± 0.063 | 1.04 ± 0.051 | 0.947 ± 0.11
RNF2 (UniProt Q99496) | 0.949 ± 0.03 | 1 ± 0.068 | 1.04 ± 0.092 | 1.05 ± 0.054 | 1.11 ± 0.09 | 1.2 ± 0.051 | 1.21 ± 0.055 | 1.21 ± 0.13
UniProt Q99707 and related entries | 0.997 ± 0.019 | 1.01 ± 0.062 | 0.987 ± 0.015 | 1.01 ± 0.033 | 0.973 ± 0.022 | 0.965 ± 0.0072 | 0.928 ± 0.023 | 0.927 ± 0.029
UniProt Q9BTE3 and related entries | 0.97 ± 0.039 | 1 ± 0.086 | 0.948 ± 0.019 | 0.952 ± 0.033 | 0.928 ± 0.025 | 0.923 ± 0.022 | 0.916 ± 0.034 | 0.909 ± 0.015
SETD2 (UniProt Q9BYW2) | 0.996 ± 0.025 | 0.994 ± 0.028 | 1.04 ± 0.013 | 1.01 ± 0.053 | 1.02 ± 0.026 | 1.04 ± 0.025 | 1.08 ± 0.041 | 1.06 ± 0.031
UIMC1 (UniProt Q96RL1) | 1.02 ± 0.018 | 0.995 ± 0.013 | 1.01 ± 0.031 | 0.989 ± 0.015 | 1.03 ± 0.03 | 1.06 ± 0.048 | 1.04 ± 0.087 | 1.05 ± 0.075
JAKMIP1 (UniProt Q96N16) | 1.04 ± 0.034 | 1.11 ± 0.066 | 1.22 ± 0.078 | 1.26 ± 0.14 | 1.34 ± 0.18 | 1.37 ± 0.14 | 1.37 ± 0.15 | 1.39 ± 0.21
UniProt Q96S94 and related entries | 0.934 ± 0.019 | 0.99 ± 0.053 | 0.955 ± 0.037 | 0.989 ± 0.092 | 0.933 ± 0.043 | 0.9476 ± 0.0035 | 0.965 ± 0.026 | 1.03 ± 0.11
SGPP1 (UniProt Q9BX95) | 0.962 ± 0.079 | 0.976 ± 0.073 | 0.925 ± 0.072 | 0.917 ± 0.12 | 0.883 ± 0.072 | 0.919 ± 0.1 | 0.946 ± 0.084 | 0.936 ± 0.032
UniProt Q9BYV8 | 0.947 ± 0.061 | 0.894 ± 0.11 | 0.975 ± 0.069 | 0.957 ± 0.11 | 0.95 ± 0.14 | 0.952 ± 0.14 | 0.93 ± 0.11 | 0.975 ± 0.068
BUD13 (UniProt Q9BRD0) | 1.1 ± 0.024 | 0.995 ± 0.057 | 1.14 ± 0.03 | 1.15 ± 0.11 | 1.12 ± 0.071 | 1.18 ± 0.12 | 1.193 ± 0.0098 | 1.27 ± 0.15

Part of the list above, as tab-separated lines.
Target	NP40-soluble protein abundance (concentration: 0.1mM)	NP40-soluble protein abundance (concentration: 0.5mM)	NP40-soluble protein abundance (concentration: 1mM)	NP40-soluble protein abundance (concentration: 2mM)	NP40-soluble protein abundance (concentration: 4mM)	NP40-soluble protein abundance (concentration: 6mM)	NP40-soluble protein abundance (concentration: 8mM)	NP40-soluble protein abundance (concentration: 10mM)
UIMC1 (UniProt Q96RL1)	1.02 ± 0.018	0.995 ± 0.013	1.01 ± 0.031	0.989 ± 0.015	1.03 ± 0.03	1.06 ± 0.048	1.04 ± 0.087	1.05 ± 0.075
JAKMIP1 (UniProt Q96N16)	1.04 ± 0.034	1.11 ± 0.066	1.22 ± 0.078	1.26 ± 0.14	1.34 ± 0.18	1.37 ± 0.14	1.37 ± 0.15	1.39 ± 0.21

Reference: the supplement of paper PMC6411743
